According to paper PMC11585782, “The Plastidial Protein Acetyltransferase GNAT1 Forms a Complex With GNAT2, yet Their Interaction Is Dispensable for State Transitions” (Molecular & Cellular Proteomics : MCP, 2024):
Results are given in words; binding and its absence hold for the method and conditions named. In cells and extracts the contact can be indirect. These calls come from enrichment with a bait or labelling near it, and not all partners need be listed. For some of these results: No binding means not detected with the bait. For some of these results: Sequences can lack the tags named with a protein.

Protein sequences, listed by entry. Tags and fused reporters are not part of them. Residues count along the entry.
UniProt Q7X9V3, residues 59-258: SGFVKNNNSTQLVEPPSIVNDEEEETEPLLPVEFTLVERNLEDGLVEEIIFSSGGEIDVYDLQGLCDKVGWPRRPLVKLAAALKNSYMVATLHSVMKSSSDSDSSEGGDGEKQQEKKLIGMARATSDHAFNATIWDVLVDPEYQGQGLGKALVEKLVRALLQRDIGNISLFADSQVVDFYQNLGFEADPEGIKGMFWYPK

T1: GNAT3-GFP (Arabidopsis thaliana) (UniProt Q940H2)
T1 sequence: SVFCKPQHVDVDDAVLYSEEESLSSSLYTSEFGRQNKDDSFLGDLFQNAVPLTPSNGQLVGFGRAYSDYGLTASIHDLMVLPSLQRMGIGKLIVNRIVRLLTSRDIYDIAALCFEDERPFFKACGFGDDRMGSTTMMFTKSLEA

T2: GNAT1-GFP (Arabidopsis thaliana) (UniProt Q9C666)
T2 sequence: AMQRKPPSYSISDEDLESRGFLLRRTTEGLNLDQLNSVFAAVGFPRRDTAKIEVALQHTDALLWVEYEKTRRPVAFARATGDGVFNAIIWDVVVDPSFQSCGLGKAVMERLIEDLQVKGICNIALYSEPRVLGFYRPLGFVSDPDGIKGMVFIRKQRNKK


Experiments:
Assay in all cases: affinity purification with mass spectrometry; GFP-Trap A beads with 2 mg leaf protein of GNAT1-, GNAT2- or GNAT3-GFP overexpressing Arabidopsis lines, 2 h at 4 °C; extraction buffer 50 mM HEPES-KOH pH 7.5, 150 mM NaCl, 10% glycerol, 2 mM EDTA, 5 mM DTT, 0.5% Triton X-100; label-free quantification against a chloroplast-targeted GFP control line; four biological replicates
[1] = target: GNAT2-GFP (Arabidopsis thaliana) (UniProt Q7X9V3)
[2] = target: T1, GNAT3-GFP (Arabidopsis thaliana)
[3] = target: T2, GNAT1-GFP (Arabidopsis thaliana)

Row | binding [1] | binding [2] | binding [3] | Binder
1 | binds | no binding | – | GNAT1 (enzyme, UniProt Q9C666 38-197) AMQRKPPSYSISDEDLESRGFLLRRTTEGLNLDQLNSVFAAVGFPRRDTAKIEVALQHTDALLWVEYEKTRRPVAFARATGDGVFNAIIWDVVVDPSFQSCGLGKAVMERLIEDLQVKGICNIALYSEPRVLGFYRPLGFVSDPDGIKGMVFIRKQRNKK
2 | binds | – | binds | Cyclophilin-like peptidyl-prolyl cis-trans isomerase family protein (protein, UniProt F4HTT6 75-317) DTIANPNLTNCENRIPTKKAFIDVSIDGEPIGRIIIGLYGDDVPAGTARFSSIVSGKAGITYRRKDFVKIMPGYVQHGGIRSYGVDAERATAAVGSLQNLIEEWERGKRGEICNVNKAGSVGIVVRDPSKPPPKTKLVARNGKLVVEEEVIAVGPNGTEFVITAVDSPELEDSVLVIGKVLEGMGVVEKMREVKTVRDNTSSPYFRVAKVIGDKRAVVAERGFNRPYSKVVVTNCGLIESQTL
